{
  "source": "patent US20080131503A1",
  "about": "(priority 2005, published 2008)",
  "origin": "cited, not measured here",
  "test_system": "plasma lipids (total-C, LDL-C, triglycerides, HDL)",
  "note": "At least one compound was matched to its structure with a doubt left.",
  "data": [
    {"smiles": "CCC(C)(C)C(=O)O[C@H]1C[C@@H](C)C=C2C=C[C@H](C)[C@H](CC[C@@H]3C[C@@H](O)CC(=O)O3)[C@H]21", "note": "(relative stereo) [Simvastatin, butanoic acid, 2,2-dimethyl-, 1,2,3,7,8,8a-hexahydro-3,7-dimethyl-8-[2-(tetrahydro-4-hydroxy-6-oxo-2H-pyran-2-yl)-ethyl]-1-naphthalenyl ester, [1S-[1(alpha),3(alpha),7(beta),8(beta)(2S*,4S*),-8a(beta)]]]", "values": [
      {"measurement": "LDL-C concentrations", "setting": "normal and elevated LDL-C", "result": "reduce both normal and elevated LDL-C concentrations"}
    ]},
    {"smiles": "CC(C)OC(=O)C(C)(C)Oc1ccc(C(=O)c2ccc(Cl)cc2)cc1", "note": "[Fenofibrate]", "values": [
      {"measurement": "Plasma cholesterol and LDL-C", "setting": "hypercholesterolemic and mixed dyslipidemic patients", "result": "substantial reduction"},
      {"measurement": "Plasma triglyceride levels", "setting": "hypertriglyceridemic patients", "result": "substantial reduction"},
      {"measurement": "HDL, apo-lipoprotein apoAI and apoAII", "setting": "treated patients", "result": "increases"}
    ]},
    {"smiles": "CC(C)(Oc1ccc(C(=O)c2ccc(Cl)cc2)cc1)C(=O)O", "note": "[Fenofibric acid]", "values": [
      {"measurement": "Total-C, LDL-C, apo-lipoprotein B, total triglycerides and VLDL", "setting": "treated patients", "result": "reductions"}
    ]}
  ]
}
